Laboratory results as given in article PMC11043371.
No constants are given. Whether binding was seen depends on the method and setting. In cells and extracts the contact can be indirect. Some binding calls cover weakened binding; strength is not graded here.

The chains behind the UniProt entries cited, without tags or fusion partners.
UniProt P13010: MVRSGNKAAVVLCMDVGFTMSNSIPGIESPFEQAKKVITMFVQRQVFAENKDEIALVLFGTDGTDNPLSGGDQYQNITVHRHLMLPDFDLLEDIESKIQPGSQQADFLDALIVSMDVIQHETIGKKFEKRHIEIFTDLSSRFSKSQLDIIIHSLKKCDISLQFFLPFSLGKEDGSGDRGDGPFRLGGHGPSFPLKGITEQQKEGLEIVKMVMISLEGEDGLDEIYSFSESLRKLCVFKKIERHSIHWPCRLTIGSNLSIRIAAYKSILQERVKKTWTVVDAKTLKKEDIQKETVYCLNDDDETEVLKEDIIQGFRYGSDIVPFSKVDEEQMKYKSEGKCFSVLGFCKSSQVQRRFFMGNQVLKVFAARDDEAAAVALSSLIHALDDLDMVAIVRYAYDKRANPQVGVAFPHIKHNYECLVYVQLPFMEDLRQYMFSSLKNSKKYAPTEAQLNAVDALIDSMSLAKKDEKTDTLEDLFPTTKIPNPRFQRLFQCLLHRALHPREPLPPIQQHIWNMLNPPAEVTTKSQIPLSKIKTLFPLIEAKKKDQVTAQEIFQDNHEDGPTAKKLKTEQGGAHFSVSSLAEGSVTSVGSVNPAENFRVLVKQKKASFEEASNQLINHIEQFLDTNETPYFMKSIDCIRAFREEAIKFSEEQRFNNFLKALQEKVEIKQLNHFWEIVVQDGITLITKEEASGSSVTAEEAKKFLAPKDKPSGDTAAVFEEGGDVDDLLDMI
UniProt P12956: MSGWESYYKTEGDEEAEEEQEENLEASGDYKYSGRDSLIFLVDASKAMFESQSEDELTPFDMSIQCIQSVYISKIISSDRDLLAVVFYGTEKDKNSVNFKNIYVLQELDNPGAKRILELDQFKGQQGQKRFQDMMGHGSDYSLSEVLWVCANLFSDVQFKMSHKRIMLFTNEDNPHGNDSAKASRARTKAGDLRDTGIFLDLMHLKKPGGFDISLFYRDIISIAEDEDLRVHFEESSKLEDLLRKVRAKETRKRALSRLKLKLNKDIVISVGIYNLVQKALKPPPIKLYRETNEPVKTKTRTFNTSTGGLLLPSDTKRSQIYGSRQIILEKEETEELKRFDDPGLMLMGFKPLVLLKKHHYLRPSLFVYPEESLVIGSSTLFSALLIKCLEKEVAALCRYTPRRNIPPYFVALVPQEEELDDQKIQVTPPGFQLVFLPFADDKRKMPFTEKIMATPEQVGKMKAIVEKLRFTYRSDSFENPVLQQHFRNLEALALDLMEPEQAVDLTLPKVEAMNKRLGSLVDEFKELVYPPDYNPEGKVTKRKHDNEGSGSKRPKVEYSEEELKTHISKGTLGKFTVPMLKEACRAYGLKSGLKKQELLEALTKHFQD

Biological target: T1, Ferroptosis suppressor protein 1 (human (endogenous in HEK 293T)) (UniProt Q9BRQ8)
T1 sequence: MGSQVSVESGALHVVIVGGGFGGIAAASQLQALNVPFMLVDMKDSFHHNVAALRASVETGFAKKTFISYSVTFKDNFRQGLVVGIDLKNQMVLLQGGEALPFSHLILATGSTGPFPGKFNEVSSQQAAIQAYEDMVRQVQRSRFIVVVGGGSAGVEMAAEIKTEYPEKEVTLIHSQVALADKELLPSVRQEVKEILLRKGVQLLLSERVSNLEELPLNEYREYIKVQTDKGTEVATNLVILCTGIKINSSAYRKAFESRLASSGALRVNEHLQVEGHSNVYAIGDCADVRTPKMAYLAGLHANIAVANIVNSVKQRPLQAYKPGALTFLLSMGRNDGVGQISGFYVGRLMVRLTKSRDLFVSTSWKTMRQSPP
Assay: co-IP; IP with IgG (control), anti-Ku70, anti-Ku80 or anti-FSP1 antibody from HEK 293T lysate, protein A/G magnetic beads, 4 °C; immunoblot

Row | binding | Substance
1 | binds | Ku80 (from UniProt P13010 1-732)
2 | binds | Ku70 (from UniProt P12956 1-609)
